Results on 1 substance are retold here after article PMC10920344.

Protein sequences, listed by entry. Tags and fused reporters are not part of them.
UniProt P20339: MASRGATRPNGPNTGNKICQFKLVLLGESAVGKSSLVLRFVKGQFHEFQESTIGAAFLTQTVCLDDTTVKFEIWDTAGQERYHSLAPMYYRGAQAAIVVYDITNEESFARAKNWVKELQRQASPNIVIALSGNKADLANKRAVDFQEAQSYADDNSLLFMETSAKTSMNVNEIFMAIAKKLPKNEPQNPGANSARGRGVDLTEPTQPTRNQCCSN

The target in the assay is T1, Syntaxin-6 (human (endogenous in MM1S)) (UniProt O43752).
T1 sequence: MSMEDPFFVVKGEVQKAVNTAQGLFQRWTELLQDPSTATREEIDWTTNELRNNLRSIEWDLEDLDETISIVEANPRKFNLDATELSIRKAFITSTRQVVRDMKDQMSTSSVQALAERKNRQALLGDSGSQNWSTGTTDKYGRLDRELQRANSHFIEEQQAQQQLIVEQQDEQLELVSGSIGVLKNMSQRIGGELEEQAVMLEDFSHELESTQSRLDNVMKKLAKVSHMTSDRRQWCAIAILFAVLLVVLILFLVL
As to the kind of experiment: co-IP; endogenous proteins in whole cell lysates (Dignam buffer) of MM1S cells treated with control (Ctr) or MM-ZC DNA; lysate with primary antibody 4 hr in the cold, then Dynabeads Protein G 2 hr at 4C, five washes with lysis buffer, immunoblot; rabbit IgG as control IP; 3 replicates.

Results are given in words; binding and its absence hold for the method and conditions named. In cells and extracts the contact can be indirect. Some results given as binding are weak or reduced against the parent protein; the word gives no strength.

For Rab5a (from UniProt P20339 1-215), the binding result is listed as “binds”.
